Experiment [1] addresses T1, RANGAP1 (human (endogenous in HeLa)) (UniProt P46060).
T1 sequence: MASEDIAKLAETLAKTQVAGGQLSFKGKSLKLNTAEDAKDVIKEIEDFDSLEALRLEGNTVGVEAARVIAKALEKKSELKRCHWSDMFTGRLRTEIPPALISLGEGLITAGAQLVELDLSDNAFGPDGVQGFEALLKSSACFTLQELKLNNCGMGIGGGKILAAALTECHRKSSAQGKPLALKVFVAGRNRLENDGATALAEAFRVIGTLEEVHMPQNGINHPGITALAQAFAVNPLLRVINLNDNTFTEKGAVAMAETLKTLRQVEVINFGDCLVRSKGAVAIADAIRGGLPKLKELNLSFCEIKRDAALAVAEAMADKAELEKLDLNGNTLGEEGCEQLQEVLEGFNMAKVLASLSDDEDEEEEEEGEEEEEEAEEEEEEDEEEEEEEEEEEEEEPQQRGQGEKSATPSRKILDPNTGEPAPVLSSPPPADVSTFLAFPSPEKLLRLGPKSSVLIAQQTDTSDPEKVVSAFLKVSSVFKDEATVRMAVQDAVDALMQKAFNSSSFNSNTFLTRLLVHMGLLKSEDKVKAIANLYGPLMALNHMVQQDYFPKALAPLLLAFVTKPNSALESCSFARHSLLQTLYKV
Nature of the experiment: proximity ligation; intermolecular PLA (Duolink) in fixed HeLa cells, endogenous proteins, primary antibodies against the two proteins; PLA signals/cell counted in mitotic stages against interphase (rare before nuclear envelope breakdown, peak in metaphase).

The chains behind the UniProt entries cited, without tags or fusion partners.
UniProt P49792: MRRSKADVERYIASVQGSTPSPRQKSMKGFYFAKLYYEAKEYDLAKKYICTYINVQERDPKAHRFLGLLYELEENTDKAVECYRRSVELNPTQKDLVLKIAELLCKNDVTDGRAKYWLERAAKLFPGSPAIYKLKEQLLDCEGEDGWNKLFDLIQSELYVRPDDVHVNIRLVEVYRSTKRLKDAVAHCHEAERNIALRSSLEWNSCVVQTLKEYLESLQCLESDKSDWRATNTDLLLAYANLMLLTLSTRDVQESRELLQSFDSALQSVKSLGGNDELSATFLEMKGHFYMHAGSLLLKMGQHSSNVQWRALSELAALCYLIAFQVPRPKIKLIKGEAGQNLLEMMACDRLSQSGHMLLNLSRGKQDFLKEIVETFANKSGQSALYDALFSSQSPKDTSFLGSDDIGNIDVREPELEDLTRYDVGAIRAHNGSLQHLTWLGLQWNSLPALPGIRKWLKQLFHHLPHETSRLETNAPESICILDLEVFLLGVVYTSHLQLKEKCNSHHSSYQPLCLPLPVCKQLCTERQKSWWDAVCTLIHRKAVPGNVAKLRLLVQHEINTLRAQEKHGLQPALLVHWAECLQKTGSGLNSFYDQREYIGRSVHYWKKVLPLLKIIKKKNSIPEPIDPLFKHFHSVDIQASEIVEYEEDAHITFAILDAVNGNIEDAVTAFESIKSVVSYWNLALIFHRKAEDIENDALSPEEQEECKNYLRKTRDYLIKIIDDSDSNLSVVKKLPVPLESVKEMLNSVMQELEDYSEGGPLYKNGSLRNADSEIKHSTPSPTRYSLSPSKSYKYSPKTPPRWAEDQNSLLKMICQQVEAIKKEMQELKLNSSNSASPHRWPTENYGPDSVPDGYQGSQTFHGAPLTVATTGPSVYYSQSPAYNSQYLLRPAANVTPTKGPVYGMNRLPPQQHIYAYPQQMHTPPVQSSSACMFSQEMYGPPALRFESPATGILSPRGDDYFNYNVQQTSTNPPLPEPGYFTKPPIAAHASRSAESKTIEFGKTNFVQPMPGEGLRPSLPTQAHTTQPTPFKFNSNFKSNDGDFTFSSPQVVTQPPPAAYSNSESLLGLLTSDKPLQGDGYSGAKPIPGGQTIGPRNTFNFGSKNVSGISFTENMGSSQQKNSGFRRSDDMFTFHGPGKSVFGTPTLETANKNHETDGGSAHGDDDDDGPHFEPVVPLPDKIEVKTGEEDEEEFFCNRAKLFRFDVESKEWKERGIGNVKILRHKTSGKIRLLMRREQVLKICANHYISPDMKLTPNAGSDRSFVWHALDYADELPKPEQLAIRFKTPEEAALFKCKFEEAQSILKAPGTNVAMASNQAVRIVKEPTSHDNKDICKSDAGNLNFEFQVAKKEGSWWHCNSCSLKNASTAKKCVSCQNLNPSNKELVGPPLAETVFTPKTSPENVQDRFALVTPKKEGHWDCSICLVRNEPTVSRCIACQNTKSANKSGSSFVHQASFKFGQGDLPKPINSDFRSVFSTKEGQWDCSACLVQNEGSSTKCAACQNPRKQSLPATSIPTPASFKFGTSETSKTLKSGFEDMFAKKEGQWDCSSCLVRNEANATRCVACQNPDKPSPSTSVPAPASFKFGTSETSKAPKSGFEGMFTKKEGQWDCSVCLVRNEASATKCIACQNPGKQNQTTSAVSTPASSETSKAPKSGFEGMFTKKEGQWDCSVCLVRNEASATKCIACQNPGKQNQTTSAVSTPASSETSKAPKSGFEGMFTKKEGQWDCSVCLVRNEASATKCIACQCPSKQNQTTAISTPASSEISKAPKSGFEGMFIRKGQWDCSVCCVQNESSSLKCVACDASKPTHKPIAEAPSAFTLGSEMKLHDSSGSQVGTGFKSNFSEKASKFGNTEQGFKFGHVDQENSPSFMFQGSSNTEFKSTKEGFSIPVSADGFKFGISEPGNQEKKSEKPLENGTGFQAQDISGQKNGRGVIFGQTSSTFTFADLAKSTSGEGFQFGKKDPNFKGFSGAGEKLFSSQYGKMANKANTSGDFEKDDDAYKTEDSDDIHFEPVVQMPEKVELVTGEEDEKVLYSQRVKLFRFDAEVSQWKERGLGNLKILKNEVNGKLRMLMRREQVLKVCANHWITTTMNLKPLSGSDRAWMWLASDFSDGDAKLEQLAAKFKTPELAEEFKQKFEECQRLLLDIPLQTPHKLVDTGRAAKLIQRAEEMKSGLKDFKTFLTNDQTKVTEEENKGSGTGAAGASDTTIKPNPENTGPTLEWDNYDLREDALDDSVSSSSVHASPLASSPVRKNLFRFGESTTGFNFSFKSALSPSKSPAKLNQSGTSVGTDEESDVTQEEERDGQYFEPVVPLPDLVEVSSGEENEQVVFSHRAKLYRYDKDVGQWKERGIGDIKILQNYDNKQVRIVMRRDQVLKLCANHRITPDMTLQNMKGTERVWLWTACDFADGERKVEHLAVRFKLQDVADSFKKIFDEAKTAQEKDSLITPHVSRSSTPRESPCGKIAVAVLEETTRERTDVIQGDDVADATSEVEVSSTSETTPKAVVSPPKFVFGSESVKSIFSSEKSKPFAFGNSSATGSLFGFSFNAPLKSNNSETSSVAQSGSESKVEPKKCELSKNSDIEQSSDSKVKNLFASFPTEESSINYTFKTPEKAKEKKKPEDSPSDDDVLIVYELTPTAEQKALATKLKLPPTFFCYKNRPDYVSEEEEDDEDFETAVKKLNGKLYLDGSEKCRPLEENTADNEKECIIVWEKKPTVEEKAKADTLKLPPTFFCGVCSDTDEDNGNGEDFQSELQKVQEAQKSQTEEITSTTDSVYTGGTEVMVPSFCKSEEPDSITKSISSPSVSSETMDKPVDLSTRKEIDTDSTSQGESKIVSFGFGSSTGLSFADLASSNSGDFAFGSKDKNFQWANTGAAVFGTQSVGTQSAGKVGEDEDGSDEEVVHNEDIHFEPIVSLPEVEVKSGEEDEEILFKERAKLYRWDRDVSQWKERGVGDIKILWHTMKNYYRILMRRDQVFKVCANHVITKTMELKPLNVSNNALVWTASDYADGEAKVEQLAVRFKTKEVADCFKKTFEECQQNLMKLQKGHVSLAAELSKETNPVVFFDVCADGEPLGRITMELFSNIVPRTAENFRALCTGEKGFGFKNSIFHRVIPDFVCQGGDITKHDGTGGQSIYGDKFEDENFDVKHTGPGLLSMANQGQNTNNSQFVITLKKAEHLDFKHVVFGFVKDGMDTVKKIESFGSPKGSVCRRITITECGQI

Experiment [2] has as its target RANBP2 (human (endogenous in HeLa)) (UniProt P49792). The description is as above.

No constants are given. Whether binding was seen depends on the method and setting. In cells and extracts the contact can be indirect. Some results given as binding are weak or reduced against the parent protein; the word gives no strength.

B1: Nucleolar and Spindle-Associated Protein 1 (NuSAP1) (protein, UniProt Q9BXS6 1-441)
chain: MIIPSLEELDSLKYSDLQNLAKSLGLRANLRATKLLKALKGYIKHEARKGNENQDESQTSASSCDETEIQISNQEEAERQPLGHVTKTRRRCKTVRVDPDSQQNHSEIKISNPTEFQNHEKQESQDLRATAKVPSPPDEHQEAENAVSSGNRDSKVPSEGKKSLYTDESSKPGKNKRTAITTPNFKKLHEAHFKEMESIDQYIERKKKHFEEHNSMNELKQQPINKGGVRTPVPPRGRLSVASTPISQRRSQGRSCGPASQSTLGLKGSLKRSAISAAKTGVRFSAATKDNEHKRSLTKTPARKSAHVTVSGGTPKGEAVLGTHKLKTITGNSAAVITPFKLTTEATQTPVSNKKPVFDLKASLSRPLNYEPHKGKLKPWGQSKENNYLNQHVNRINFYKKTYKQPHLQTKEEQRKKREQERKEKKAKVLGMRRGLILAED
As to B1, the binding result in experiment [1] and in experiment [2] was “binds” each time.

For the origin of these results see article PMC10650578.
